Values joined by “and” are separate entries in the source; they are usually repeats but may differ in a detail not shown here. Equal values may be shown once. This continues a long series; more values of the same kind are listed elsewhere.
Biological target: T1, HiBiT-SOCS2 fusion in HeLa cells (Homo sapiens, UniProt O14508)
T1 construct: encoding SOCS2 (32–198) in pBiT3.1-N expression vector; expressed in transfected cells; host or cells: HeLa
Assay: Split-NanoLuc CETSA, live-cell mode
Type: cell-based
Parameters: reference not given here
Settings: 50uM 20hrs
Method: One of the challenges with small-molecule binders displaying on-target activity with recombinant proteins, is to translate their utility to a cellular context. […] One of the advantages of CETSA is that target engagement can be monitored without the need for the development of a cell-permeable tracer molecule.
We utilized CETSA in a live-cell mode to evaluate the efficacy and rank the different prodrugs. We treated live HeLa cells with 50 μM compound (prodrugs) for 20 h and monitored Tagg shift as a proxy for the combo of prodrug permeability and unmasking (Fig. 4d). […] The observation could be because the POM group unmasking requires only esterase unlike the reliance of compounds 21–23 on esterase and phosphoramidase for unmasking an aryloxy phosphoramidate group.
N-terminal HiBiT-SOCS2 fusion was generated by encoding SOCS2 (32–198) in pBiT3.1-N expression vector (Promega). The transfection and target engagement assay were performed by modifying a NanoLuc target engagement protocol (Promega) with some small modifications. Briefly, HiBiT-SOCS2 fusion construct was transfected into HeLa cells using FuGENE HD (Promega) according to the manufacturer’s protocol. HiBiT-SOCS2 fusion construct was diluted into Transfection Carrier DNA (Promega) at a mass ratio of 1:100 or 1:10 for permeabilised and live-cell CETSA respectively. FuGENE HD was added at a ratio of 1:3 (μg DNA: μL FuGENE HD). 1 part (vol) of FuGENE HD complexes thus formed were combined with 20 parts (vol) of HeLa cells suspended at a density of 2 × 10^5 cells/mL, followed by incubation in a humidified, 37 °C + 5% CO2 incubator. After 20 h of incubation HeLa cells were detached and resuspended at a density of 2.5 × 10^5 cells/mL in Opti-MEM media without serum or phenol red but supplemented with protease inhibitor cocktail (Roche). Compounds stocks were added to cell suspension to maintain a final DMSO concentration of 1%. For the permeabilised assay format, 96-well PCR plates (Thermo) were pre-treated with digitonin to have a final well concentration of 50 μg/ml. 50 μl Opti-MEM cell suspension was then aliquoted to each well of the 96-well plate. The plates are then covered with microporous tape sheet (Qiagen) prior to incubation in a humidified, 37 °C + 5% CO2 incubator. Post-incubation we heat the PCR plates in 16-point temperature (split across two runs) curve spanning degrees 40-72 °C temperature span (CFX96 Touch Real-Time PCR Detection System, BioRad). The thermal cycler block was allowed to rise to the designated temperatures prior to placement of the PCR plates into the heating block and heat treatment for 3 min. After incubating the plates at room temperature for over 3 min, 50 μl of the Nano-Glo HiBiT Lytic mix (Promega) was added to each well. Samples were mixed by pipetting and placing the plate on an orbital shaker (600 rpm) for 5 min. 20 μl of the samples (in triplicates) were transferred to a AlphaPlate-384 plate (Perkin Elmer). Luminescence was recorded with GloMax Discover Microplate Reader (Promega). To generate apparent Tagg curves, the data is first converted to percent stabilized by relating the observed luminescence to the luminescence of the lowest temperature (40 °C) for that given sample. Data are then fitted to obtain apparent Tagg values using the Boltzmann Sigmoid equation using Graphpad Prism 9.

The chains behind the UniProt entries cited, without tags or fusion partners. Residues count along the entry.
UniProt O14508, 32-198: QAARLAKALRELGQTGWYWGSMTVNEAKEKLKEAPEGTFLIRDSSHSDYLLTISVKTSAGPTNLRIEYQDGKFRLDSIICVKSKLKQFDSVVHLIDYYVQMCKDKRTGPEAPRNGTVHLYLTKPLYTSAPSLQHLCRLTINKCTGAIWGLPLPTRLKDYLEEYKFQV

[1] = n=1, temperature point 3 of 16, temperature not given
[2] = n=1, temperature point 1 of 16, temperature not given

Row | Structure (SMILES) | Produrg CETSA screening, raw signal [1] | Produrg CETSA screening, raw signal (n=3, Temp, 0C 40) | Produrg CETSA screening, raw signal (n=3, Temp, 0C 40.9) | Produrg CETSA screening, raw signal (n=3, Temp, 0C 42.9) | Produrg CETSA screening, raw signal (n=3, Temp, 0C 45.8) | Produrg CETSA screening, raw signal (n=3, Temp, 0C 49.5) | Produrg CETSA screening, raw signal (n=3, Temp, 0C 52.4) | Produrg CETSA screening, raw signal (n=3, Temp, 0C 54.1) | Produrg CETSA screening, raw signal (n=3, Temp, 0C 55) | Produrg CETSA screening, raw signal (n=3, Temp, 0C 56) | Produrg CETSA screening, raw signal (n=3, Temp, 0C 57.1) | Produrg CETSA screening, raw signal (n=3, Temp, 0C 59.2) | Produrg CETSA screening, raw signal (n=3, Temp, 0C 62.3) | Produrg CETSA screening, raw signal [2]
1 | COC(=O)[C@H](C)NP(=O)(Oc1ccc(C[C@H](NC(=O)Cc2ccc(F)cc2)C(=O)NCc2cccc(NC(=O)CCl)c2)cc1)Oc1cccc2ccccc12 (stereo partly drawn) [Compound 21] | 113448 and 102913 and 181659 | 106265 and 112198 and 119294 | 109899 and 115055 and 121931 | 83334 and 80184 and 93040 | 77608 and 87638 and 92665 | 73082 and 84063 and 89829 | 57034 and 65098 and 70354 | 44561 and 51273 and 64464 | 39974 and 47326 and 53401 | 39696 and 43402 and 52325 | 32038 and 42241 and 42528 | 21321 and 29927 and 36357 | 21596 and 23870 | 
2 | C[C@H](NP(=O)(Oc1ccc(C[C@H](NC(=O)Cc2ccc(F)cc2)C(=O)NCc2cccc(NC(=O)CCl)c2)cc1)Oc1cccc2ccccc12)C(=O)OCc1ccccc1 (stereo partly drawn) [Compound 23] | 75665 and 76023 and 87987 | 86109 and 99917 and 106945 | 90562 and 92623 and 105820 | 78371 and 90666 and 96745 | 73987 and 84265 and 91160 | 110287 and 116224 and 134122 | 83129 and 87051 and 111961 | 50256 and 61162 |  |  |  |  |  | 96179 and 66691 and 106678
3 | CC(C)(C)C(=O)OCOP(=O)(OCOC(=O)C(C)(C)C)Oc1ccc(C[C@H](NC(=O)Cc2ccc(F)cc2)C(=O)NCc2cccc(NC(=O)CCl)c2)cc1 [MN714] | 84153 and 150620 and 140451 | 98813 and 108173 and 115696 | 99191 and 104307 and 114654 | 98886 and 104736 and 111342 | 90351 and 101251 and 104167 | 95789 and 104273 and 111701 | 78114 and 87832 and 90131 | 62485 and 66465 and 74792 | 57897 and 63846 and 70409 | 65003 and 70712 and 71358 | 50965 and 55773 and 64572 | 33517 and 39387 and 42632 | 20563 and 19784 | 67270 and 84567 and 117559

Source: PMC10564737, “Structure-based design of a phosphotyrosine-masked covalent ligand targeting the E3 ligase SOCS2” (Nature Communications, 2023)
